Measurements taken from article PMC7064621.

Tests used:
[1] = target: T1, Myc-AtRPN1A (Arabidopsis thaliana) (UniProt Q9SIV2); experiment: co-IP; transient co-expression in N. benthamiana; extract precleared with protein A-sepharose, Myc antibodies coupled with protein A-sepharose beads; anti-GFP blot
T1 sequence: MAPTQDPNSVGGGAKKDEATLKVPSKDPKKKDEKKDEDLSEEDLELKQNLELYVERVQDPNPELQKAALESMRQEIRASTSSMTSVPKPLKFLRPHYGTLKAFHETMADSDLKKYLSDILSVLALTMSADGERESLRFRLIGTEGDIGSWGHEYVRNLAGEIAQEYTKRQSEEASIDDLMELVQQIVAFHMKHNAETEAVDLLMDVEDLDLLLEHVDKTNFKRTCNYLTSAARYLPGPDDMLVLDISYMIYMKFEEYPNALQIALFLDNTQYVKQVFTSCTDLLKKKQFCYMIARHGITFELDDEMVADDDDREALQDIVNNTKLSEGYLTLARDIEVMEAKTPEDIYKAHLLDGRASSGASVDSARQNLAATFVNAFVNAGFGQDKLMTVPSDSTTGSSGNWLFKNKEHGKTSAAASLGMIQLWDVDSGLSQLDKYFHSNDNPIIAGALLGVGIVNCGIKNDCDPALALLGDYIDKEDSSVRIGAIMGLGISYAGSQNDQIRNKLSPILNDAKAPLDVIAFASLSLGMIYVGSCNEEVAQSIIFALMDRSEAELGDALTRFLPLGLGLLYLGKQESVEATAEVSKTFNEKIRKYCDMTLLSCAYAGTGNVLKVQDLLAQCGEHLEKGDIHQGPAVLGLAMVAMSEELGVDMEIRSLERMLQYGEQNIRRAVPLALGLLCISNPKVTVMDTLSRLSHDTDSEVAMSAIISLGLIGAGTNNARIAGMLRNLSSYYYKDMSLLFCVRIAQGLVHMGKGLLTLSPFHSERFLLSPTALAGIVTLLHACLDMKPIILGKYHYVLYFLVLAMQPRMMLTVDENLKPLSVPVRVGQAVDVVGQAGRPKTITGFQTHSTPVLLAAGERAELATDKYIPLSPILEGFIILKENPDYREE

[2] = target: AtNHR2A-GFP, transiently expressed in N. benthamiana (Arabidopsis thaliana); experiment: co-IP; semi-in vivo: 5 ug purified His-AtENGD-1 mixed with 100 ug total protein of N. benthamiana expressing AtNHR2A-GFP or GFP; GFP Trap-A beads; anti-His blot; only the binder purified

binding [1]: binds
Molecule: AtNHR2B-GFP, transiently expressed in N. benthamiana (Arabidopsis thaliana)

binding [2]: binds
B1: 6X-His-AtENGD-1 (protein, UniProt Q9SA73 1-394)
chain: MPPKAKAKDAGPVERPILGRFSSHLKIGIVGLPNVGKSTLFNTLTKLSIPAENFPFCTIEPNEARVNIPDERFDWLCQTYKPKSEIPAFLEIHDIAGLVRGAHEGQGLGNNFLSHIRAVDGIFHVLRAFEDADIIHVDDIVDPVRDLETITEELRLKDIEFVGKKIDDVEKSMKRSNDKQLKIELELLQKVKAWLEDGKDVRFGDWKTADIEILNTFQLLSAKPVVYLINLNERDYQRKKNKFLPKIHAWVQEHGGDTMIPFSGVFERSLADMAPDEAAKYCEENKLQSALPRIIKTGFSAINLIYFFTAGPDEVKCWQIRRQSKAPQAAGAIHTDFERGFICAEVMKFEDLKELGNEPAVKAAGKYRQEGKTYVVQDGDIIFFKFNVSGGGKK

Results are given in words; binding and its absence hold for the method and conditions named. Binding seen in cells or lysates may run through a third protein. Binding can be weak; no strength is given. Where a sequence is shown, tags or fusion partners need not be part of it. One block for each molecule: values may come before it.
